From patent publication US20030235860A1, “Interactions between AR, ER, TR2, and TR4” (priority 1999, published 2003)
These are yes or no findings as the source states them, for the method shown. In cells and extracts the contact can be indirect. Some entries that bind do so weakly or less than the wild type. Where a sequence is shown, tags or fusion partners need not be part of it.

By UniProt entry, the sequences of proteins in these tests, tags left out. Where a name states a change or a piece, a line headed by the entry shows the natural chain unless it says otherwise.
UniProt P03372: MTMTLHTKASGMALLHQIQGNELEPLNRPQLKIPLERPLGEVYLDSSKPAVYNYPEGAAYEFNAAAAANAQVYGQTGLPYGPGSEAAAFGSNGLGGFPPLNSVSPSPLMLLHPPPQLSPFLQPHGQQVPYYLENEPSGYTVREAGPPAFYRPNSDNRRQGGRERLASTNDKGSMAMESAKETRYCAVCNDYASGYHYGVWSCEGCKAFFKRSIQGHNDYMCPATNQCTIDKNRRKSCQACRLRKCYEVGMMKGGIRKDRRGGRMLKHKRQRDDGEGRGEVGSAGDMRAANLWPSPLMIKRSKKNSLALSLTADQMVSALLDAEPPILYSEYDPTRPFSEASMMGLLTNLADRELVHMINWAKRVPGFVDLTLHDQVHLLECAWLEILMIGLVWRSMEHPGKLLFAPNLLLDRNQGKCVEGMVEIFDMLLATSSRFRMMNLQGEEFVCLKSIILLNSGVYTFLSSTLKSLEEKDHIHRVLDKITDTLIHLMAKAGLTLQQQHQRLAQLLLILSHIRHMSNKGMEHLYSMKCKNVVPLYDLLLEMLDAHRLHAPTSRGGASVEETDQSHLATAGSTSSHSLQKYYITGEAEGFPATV

How the values were obtained:
[1] = biological target: estrogen receptor (ER), full-length (human) (UniProt P03372); assay: GST pull-down, GST fusion on beads, [35S]-ER
[2] = biological target: estrogen receptor (ER), full-length (human) (UniProt P03372); assay: GST pull-down, GST-TR2 fragment on beads, [35S]-ER

| binding [1] | binding [2] | Binder |
| --- | --- | --- |
| binds |  | GST-TR4-LBD (aa 224-615 of human TR4) (protein, not shown: a dimerising Fc or GST; small tags and cut ends) AASTEKIYIRKDLRSPLIATPTFVADKDGARQTGLLDPGMLVNIQQPLIREDGTVLLATDSKAETSQGALGTLANVVTSLANLSESLNNGDTSEIQPEDQSASEITRAFDTLAKALNTTDSSSSPSLADGIDTSGGGSIHVISRDQSTPIIEVEGPLLSDTHVTFKLTMPSPMPEYLNVHYICESASRLLFLSMHRARSIPAFQGLGQDCNTSLVRACWNELFTLGLAQCAQVMSLSTILAAIVNHLQNSIQEDKLSGDRIKQVMEHIWKLQEFCNSMANWDIDGYEYAYLKAIVLFSPDHPGLTSTSQIEKFQEKAQMELQDYVQKTYSEDTYRLARILVRLPALRLMSSNITEELFFTGLIGNVSIDSIIPYILKMETAEYNGQITGVSL |
|  | binds | GST-TR2-#2 (DBD, aa 88-196 of TR2) (protein, not shown: a dimerising Fc or GST; large carriers; small tags and cut ends) DLSAQHLQLLTDNSPDQGPNKVFDLCVVCGDKASGRHYGAVTCEGCKGFFKRSIRKNLVYSCRGSKDCIINKHHRNRCQYCRLQRCIAFGMKQDSVQCERKPIEVSREK |
